# Reference: the supplement of paper PMC8728848
# The other results are listed elsewhere or left out.
# B1: Sp8391B-bot-388-20-388 (Bacteroides ovatus) (protein)
# chain: GCQNNDENEQHYDNKLFISASNFTKEILFKAGDTNVETGLSVAIAKPEEHDIKVTMSPAPELLSTYKLAYYDETAVLLSEEHYSMPETSTTIKSGSIVSPELPIEFINTGELDIKTTYVLPVTIKSVEGIGVLQSAKTYYYVFRGASLINVVCNISRNRAYPDFKNDSKFNNLTENTMEILFKANSFPNTLNTLMGIESNYLLRIGDATIPNNQLQVATSVNNCTSADLQLESGKWYHVAVAFNKGNVKVYINGVEKLSGSTGKSSVSLGAKHTNEEDGSRCFWVGYSYKDDRYFDGVVSEVRIWNRALTAEEIQATNHFYTIEPESEGLIAYWKFDEGSGTVAKDYSVSGYDLTIEKEPKWESVSLPQ
# What was measured:
# Experiment in all cases: glycan array binding signal (z-score within array); higher = stronger binding
# Settings in all cases: glycan notation: IUPAC condensed, linker removed
# [1] = molecular target: Neu5Ac(a2-6)Gal(b1-4)GlcNAc(b1-2)Man(a1-3)[Neu5Ac(a2-3)Gal(b1-4)GlcNAc(b1-2)Man(a1-6)]Man(b1-4)GlcNAc(b1-4)GlcNAc
# Outline: (§1)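 Arrays were curated from the Consortium for Functional Glycomics database, 3228 in total, and kept only where the protein sequence was available. Binding is expressed as a within-array Z-score. This score was averaged across arrays of the same protein sequence at different concentrations or buffers and across linkers, and negative values can be read as non-binding.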
# [2] = molecular target: Neu5Ac(a2-6)Gal(b1-4)GlcNAc(b1-2)Man(a1-3)[Neu5Ac(a2-6)Gal(b1-4)GlcNAc(b1-2)Man(a1-6)]Man(b1-4)GlcNAc(b1-4)GlcNAc
# Outline: as §1
# [3] = molecular target: Neu5Ac(a2-6)Gal(b1-4)GlcNAc(b1-2)Man(a1-3)[Neu5Ac(a2-6)Gal(b1-4)GlcNAc(b1-2)Man(a1-6)]Man(b1-4)GlcNAc(b1-4)[Fuc(a1-6)]GlcNAc
# Outline: as §1
# [4] = molecular target: Neu5Ac(a2-6)Gal(b1-4)GlcNAc(b1-2)Man(a1-6)Man(b1-4)GlcNAc(b1-4)GlcNAc
# Outline: as §1
# [5] = molecular target: Neu5Ac(a2-6)Gal(b1-4)GlcNAc(b1-2)Man(a1-6)[Gal(b1-4)GlcNAc(b1-2)Man(a1-3)]Man(b1-4)GlcNAc(b1-4)GlcNAc
# Outline: as §1
# [6] = molecular target: Neu5Ac(a2-6)Gal(b1-4)GlcNAc(b1-2)Man(a1-6)[GlcNAc(b1-2)Man(a1-3)]Man(b1-4)GlcNAc(b1-4)GlcNAc
# Outline: as §1
# [7] = molecular target: Neu5Ac(a2-6)Gal(b1-4)GlcNAc(b1-2)Man(a1-6)[Man(a1-3)]Man(b1-4)GlcNAc(b1-4)GlcNAc
# Outline: as §1
# [8] = molecular target: Neu5Ac(a2-6)Gal(b1-4)GlcNAc(b1-2)[Neu5Ac(a2-6)Gal(b1-4)GlcNAc(b1-4)]Man(a1-3)[GlcNAc(b1-4)][Neu5Ac(a2-6)Gal(b1-4)GlcNAc(b1-2)[Neu5Ac(a2-6)Gal(b1-4)GlcNAc(b1-6)]Man(a1-6)]Man(b1-4)GlcNAc(b1-4)GlcNAc
# Outline: as §1
# [9] = molecular target: Neu5Ac(a2-6)Gal(b1-4)GlcNAc(b1-2)[Neu5Ac(a2-6)Gal(b1-4)GlcNAc(b1-4)]Man(a1-3)[GlcNAc(b1-4)][Neu5Ac(a2-6)Gal(b1-4)GlcNAc(b1-4)Man(a1-6)]Man(b1-4)GlcNAc(b1-4)GlcNAc
# Outline: as §1
# [10] = molecular target: Neu5Ac(a2-6)Gal(b1-4)GlcNAc(b1-2)[Neu5Ac(a2-6)Gal(b1-4)GlcNAc(b1-6)]Man(a1-6)[Neu5Ac(a2-6)Gal(b1-4)GlcNAc(b1-2)Man(a1-3)][GlcNAc(b1-4)]Man(b1-4)GlcNAc(b1-4)GlcNAc
# Outline: as §1
# [11] = molecular target: Neu5Ac(a2-6)Gal(b1-4)GlcNAc(b1-3)Gal(b1-3)GlcNAc
# Outline: as §1
# [12] = molecular target: Neu5Ac(a2-6)Gal(b1-4)GlcNAc(b1-3)Gal(b1-4)GlcNAc
# Outline: as §1
# [13] = molecular target: Neu5Ac(a2-6)Gal(b1-4)GlcNAc(b1-3)Gal(b1-4)GlcNAc(b1-2)Man(a1-3)[Neu5Ac(a2-6)Gal(b1-4)GlcNAc(b1-3)Gal(b1-4)GlcNAc(b1-2)Man(a1-6)]GalNAc
# Outline: as §1
# [14] = molecular target: Neu5Ac(a2-6)Gal(b1-4)GlcNAc(b1-3)Gal(b1-4)GlcNAc(b1-3)Gal(b1-4)GlcNAc
# Outline: as §1
# [15] = molecular target: Neu5Ac(a2-6)Gal(b1-4)GlcNAc(b1-3)Gal(b1-4)GlcNAc(b1-3)Gal(b1-4)GlcNAc(b1-2)Man(a1-3)[Neu5Ac(a2-6)Gal(b1-4)GlcNAc(b1-3)Gal(b1-4)GlcNAc(b1-3)Gal(b1-4)GlcNAc(b1-2)Man(a1-6)]GalNAc
# Outline: as §1
# [16] = molecular target: Neu5Ac(a2-6)Gal(b1-4)GlcNAc(b1-3)Gal(b1-4)GlcNAc(b1-3)GalNAc
# Outline: as §1
# [17] = molecular target: Neu5Ac(a2-6)Gal(b1-4)GlcNAc(b1-3)Gal(b1-4)GlcNAc(b1-3)[Neu5Ac(a2-6)Gal(b1-4)GlcNAc(b1-3)Gal(b1-4)GlcNAc(b1-6)]GalNAc
# Outline: as §1
# [18] = molecular target: Neu5Ac(a2-6)Gal(b1-4)GlcNAc(b1-3)Gal(b1-4)GlcNAc(b1-6)[Gal(b1-3)]GalNAc
# Outline: as §1
# [19] = molecular target: Neu5Ac(a2-6)Gal(b1-4)GlcNAc(b1-3)Gal(b1-4)[Fuc(a1-3)]GlcNAc(b1-3)Gal(b1-4)[Fuc(a1-3)]GlcNAc
# Outline: as §1
# [20] = molecular target: Neu5Ac(a2-6)Gal(b1-4)GlcNAc(b1-3)GalNAc
# Outline: as §1
# [21] = molecular target: Neu5Ac(a2-6)Gal(b1-4)GlcNAc(b1-3)[Neu5Ac(a2-6)Gal(b1-4)GlcNAc(b1-6)]GalNAc
# Outline: as §1
# [22] = molecular target: Neu5Ac(a2-6)Gal(b1-4)GlcNAc(b1-6)GalNAc
# Outline: as §1
# [23] = molecular target: Neu5Ac(a2-6)Gal(b1-4)GlcNAc(b1-6)[Gal(b1-3)GlcNAc(b1-3)]Gal(b1-4)Glc
# Outline: as §1
# [24] = molecular target: Neu5Ac(a2-6)Gal(b1-4)GlcNAc(b1-6)[Gal(b1-3)]GalNAc
# Outline: as §1
# [25] = molecular target: Neu5Ac(a2-6)Gal(b1-4)GlcNAc6S
# Outline: as §1
# Neu5Ac(a2-6)GalNAc = molecular target: Neu5Ac(a2-6)GalNAc
# Outline: as §1
# [26] = molecular target: Neu5Ac(a2-6)GalNAc(b1-4)GlcNAc
# Outline: as §1
# [27] = molecular target: Neu5Ac(a2-6)GalNAc(b1-4)GlcNAc6S
# Outline: as §1
# [28] = molecular target: Neu5Ac(a2-6)GlcNAc(b1-4)GlcNAc
# Outline: as §1
# [29] = molecular target: Neu5Ac(a2-6)GlcNAc(b1-4)GlcNAc(b1-4)GlcNAc
# Outline: as §1
binder,measurement,setting,value
B1,glycan array binding signal (z-score),[1],-0.382
same,glycan array binding signal (z-score),[2],0.054
same,glycan array binding signal (z-score),[3],-0.262
same,glycan array binding signal (z-score),[4],-0.801
same,glycan array binding signal (z-score),[5],0.613
same,glycan array binding signal (z-score),[6],-0.638
same,glycan array binding signal (z-score),[7],0.075
same,glycan array binding signal (z-score),[8],2.53
same,glycan array binding signal (z-score),[9],-0.474
same,glycan array binding signal (z-score),[10],-0.563
same,glycan array binding signal (z-score),[11],-0.346
same,glycan array binding signal (z-score),[12],-0.321
same,glycan array binding signal (z-score),[13],0.609
same,glycan array binding signal (z-score),[14],-0.019
same,glycan array binding signal (z-score),[15],1.56
same,glycan array binding signal (z-score),[16],-0.164
same,glycan array binding signal (z-score),[17],-0.372
same,glycan array binding signal (z-score),[18],-0.24
same,glycan array binding signal (z-score),[19],0.703
same,glycan array binding signal (z-score),[20],-0.107
same,glycan array binding signal (z-score),[21],-0.507
same,glycan array binding signal (z-score),[22],0.333
same,glycan array binding signal (z-score),[23],-0.328
same,glycan array binding signal (z-score),[24],-0.211
same,glycan array binding signal (z-score),[25],1.55
same,glycan array binding signal (z-score),Neu5Ac(a2-6)GalNAc,-0.776
same,glycan array binding signal (z-score),[26],0.179
same,glycan array binding signal (z-score),[27],-0.019
same,glycan array binding signal (z-score),[28],-1.06
same,glycan array binding signal (z-score),[29],0.064
